Reference: patent US20040058368A1 (PENN STATE RESEARCH FOUNDATION, published 2004)
These are yes or no findings as the source states them, for the method shown. Some results given as binding are weak or reduced against the parent protein; the word gives no strength. Tags and fused reporters may be left off the sequences shown.

T1: Myr-Hom3p (Saccharomyces cerevisiae (yeast)) (UniProt P10869)
T1 sequence (chain, N-myristoylation signal at the N terminus): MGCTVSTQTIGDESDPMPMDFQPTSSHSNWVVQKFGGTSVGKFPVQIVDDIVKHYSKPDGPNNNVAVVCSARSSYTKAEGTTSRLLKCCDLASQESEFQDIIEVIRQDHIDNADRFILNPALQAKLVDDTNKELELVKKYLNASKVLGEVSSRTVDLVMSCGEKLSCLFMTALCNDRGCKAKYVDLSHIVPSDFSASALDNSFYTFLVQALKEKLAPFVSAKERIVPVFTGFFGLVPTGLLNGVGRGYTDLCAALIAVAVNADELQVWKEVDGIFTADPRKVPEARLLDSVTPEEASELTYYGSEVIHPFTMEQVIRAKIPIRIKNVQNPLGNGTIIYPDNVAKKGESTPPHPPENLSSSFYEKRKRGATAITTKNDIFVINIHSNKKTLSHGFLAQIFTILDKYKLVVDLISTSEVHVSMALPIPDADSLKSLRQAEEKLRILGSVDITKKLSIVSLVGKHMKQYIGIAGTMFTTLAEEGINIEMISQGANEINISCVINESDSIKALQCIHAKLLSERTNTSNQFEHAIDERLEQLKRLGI

T2: Myr-TAF145 (Saccharomyces cerevisiae (yeast)) (UniProt P46677)
T2 sequence (chain, N-myristoylation signal at the N terminus): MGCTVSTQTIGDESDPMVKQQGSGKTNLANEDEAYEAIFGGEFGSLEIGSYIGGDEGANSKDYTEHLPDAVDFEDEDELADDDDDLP

B1: Gal80-TBP (protein, UniProt P04387 1-435, looked up)
chain: MDYNKRSSVSTVPNAAPIRVGFVGLNAAKGWAIKTHYPAILQLSSQFQITALYSPKIETSIATIQRLKLSNATAFPTLESFASSSTIDMIVIAIQVASHYEVVMPLLEFSKNNPNLKYLFVEWALACSLDQAESIYKAAAERGVQTIISLQGRKSPYILRAKELISQGYIGDINSIEIAGNGGWYGYERPVKSPKYIYEIGNGVDLVTTTFGHTIDILQYMTSSYFSRINAMVFNNIPEQELIDERGNRLGQRVPKTVPDHLLFQGTLLNGNVPVSCSFKGGKPTKKFTKNLVIDIHGTKGDLKLEGDAGFAEISNLVLYYSGTRANDFPLANGQQAPLDPGYDAGKEIMEVYHLRNYNAIVGNIHRLYQSISDFHFNTKKIPELPSQFVMQGFDFEGFPTLMDALILHRLIESVYKSNMMGSTLNVSNISHYSLMADEERLKEFKEANKIVFDPNTRQVWENQNRDGTKPATTFQSEEDIKRAAPESEKDTSATSGIVPTLQNIVATVTLGCRLDLKTVALHARNAEYNPKRFAAVIMRIREPKTTALIFASGKMVVTGAKSEDDSKLASRKYARIIQKIGFAAKFTDFKIQNIVGSCDVKFPIRLEGLAFSHGTFSSYEPELFPGLIYRMVKPKIVLLIFVSGKIVLTGAKQREEIYQAFEAIYPVLSEFRKM

What was measured:
[1] = biological target: T1, Myr-Hom3p (Saccharomyces cerevisiae (yeast)); assay: 80-Trap HIS3 reporter growth assay in yeast
[2] = biological target: T2, Myr-TAF145 (Saccharomyces cerevisiae (yeast)); assay: 80-Trap HIS3 reporter growth assay in yeast

Molecule | binding [1] | binding [2]
Gal80-Fpr1p fusion (from UniProt P04387 1-435; P20081 1-114) | binds | –
B1 | – | binds
